From patent US20160046728A1
Results are given in words; binding and its absence hold for the method and conditions named. Some entries that bind do so weakly or less than the wild type.

Protein sequences, listed by entry. Tags and fused reporters are not part of them. Lines headed by an entry give the natural chain unless they say otherwise; changes in a name come on top. Residues count along the entry.
UniProt P00747, residues 97-810: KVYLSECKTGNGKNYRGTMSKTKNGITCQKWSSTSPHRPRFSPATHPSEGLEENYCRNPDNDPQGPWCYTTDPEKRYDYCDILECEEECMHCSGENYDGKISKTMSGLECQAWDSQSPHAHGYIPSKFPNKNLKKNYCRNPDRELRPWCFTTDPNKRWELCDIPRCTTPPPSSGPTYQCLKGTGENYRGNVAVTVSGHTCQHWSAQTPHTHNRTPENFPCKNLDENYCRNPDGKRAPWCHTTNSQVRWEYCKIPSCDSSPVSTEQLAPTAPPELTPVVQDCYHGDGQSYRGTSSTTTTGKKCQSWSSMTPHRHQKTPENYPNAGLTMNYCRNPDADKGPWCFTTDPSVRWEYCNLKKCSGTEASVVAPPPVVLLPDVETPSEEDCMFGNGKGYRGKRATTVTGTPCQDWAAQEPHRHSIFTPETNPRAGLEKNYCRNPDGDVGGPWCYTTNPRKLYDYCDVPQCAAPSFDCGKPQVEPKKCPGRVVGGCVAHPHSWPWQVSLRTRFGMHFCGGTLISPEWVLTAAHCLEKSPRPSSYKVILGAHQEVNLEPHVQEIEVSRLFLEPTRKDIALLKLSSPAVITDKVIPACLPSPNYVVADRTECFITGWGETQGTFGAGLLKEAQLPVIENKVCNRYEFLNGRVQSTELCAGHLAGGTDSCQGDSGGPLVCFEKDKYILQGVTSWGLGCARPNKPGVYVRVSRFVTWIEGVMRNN
UniProt Q9GP15: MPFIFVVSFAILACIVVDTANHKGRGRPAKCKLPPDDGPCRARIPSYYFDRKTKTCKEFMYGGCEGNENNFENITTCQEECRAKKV

Tests used:
plasmin [1] = biological target: plasmin (UniProt P00747); test: SPR (BIAcore 3000), Ir-CPI immobilized on a CM5 chip at 1500 RU, analyte 100 nM at 70 µl/min in HBS buffer, blank flow cell subtracted
plasmin [2] = biological target: plasmin (UniProt P00747); test: SPR, heading of the result section
plasmin [3] = biological target: plasmin (UniProt P00747); test: SPR (BIAcore 3000), Ir-CPI immobilized on CM5 chip (1500 RU), factor at 100 nM as analyte

Measured: binding

Ir-CPI (Ixodes ricinus Contact Phase Inhibitor), recombinant (from UniProt Q9GP15 20-86)
binds: all assays above
